Assay [1] concerns the target T1, HA/FLAG-PRAMEL7ΔN, one transgene copy in the Rosa26 locus of mouse ESCs (ESC+H/F-Pramel7ΔN) (mouse) (UniProt Q810Y8).
T1 sequence: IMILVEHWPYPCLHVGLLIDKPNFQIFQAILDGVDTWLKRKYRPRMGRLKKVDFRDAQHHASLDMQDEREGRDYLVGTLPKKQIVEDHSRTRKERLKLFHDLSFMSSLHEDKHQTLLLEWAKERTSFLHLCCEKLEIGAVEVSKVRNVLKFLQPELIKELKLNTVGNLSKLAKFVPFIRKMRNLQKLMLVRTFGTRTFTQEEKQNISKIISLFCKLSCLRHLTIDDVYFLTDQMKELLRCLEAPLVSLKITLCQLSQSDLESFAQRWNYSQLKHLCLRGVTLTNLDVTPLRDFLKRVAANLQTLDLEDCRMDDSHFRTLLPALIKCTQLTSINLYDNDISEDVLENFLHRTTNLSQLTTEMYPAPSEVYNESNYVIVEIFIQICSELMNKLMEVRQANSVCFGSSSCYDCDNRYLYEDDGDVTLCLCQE
The assay can be described thus: co-IP.

Chains of the proteins cited; added tags and fusions are not shown. Lines headed by an entry give the natural chain unless they say otherwise; changes in a name come on top.
UniProt Q9D4H8, whole entry: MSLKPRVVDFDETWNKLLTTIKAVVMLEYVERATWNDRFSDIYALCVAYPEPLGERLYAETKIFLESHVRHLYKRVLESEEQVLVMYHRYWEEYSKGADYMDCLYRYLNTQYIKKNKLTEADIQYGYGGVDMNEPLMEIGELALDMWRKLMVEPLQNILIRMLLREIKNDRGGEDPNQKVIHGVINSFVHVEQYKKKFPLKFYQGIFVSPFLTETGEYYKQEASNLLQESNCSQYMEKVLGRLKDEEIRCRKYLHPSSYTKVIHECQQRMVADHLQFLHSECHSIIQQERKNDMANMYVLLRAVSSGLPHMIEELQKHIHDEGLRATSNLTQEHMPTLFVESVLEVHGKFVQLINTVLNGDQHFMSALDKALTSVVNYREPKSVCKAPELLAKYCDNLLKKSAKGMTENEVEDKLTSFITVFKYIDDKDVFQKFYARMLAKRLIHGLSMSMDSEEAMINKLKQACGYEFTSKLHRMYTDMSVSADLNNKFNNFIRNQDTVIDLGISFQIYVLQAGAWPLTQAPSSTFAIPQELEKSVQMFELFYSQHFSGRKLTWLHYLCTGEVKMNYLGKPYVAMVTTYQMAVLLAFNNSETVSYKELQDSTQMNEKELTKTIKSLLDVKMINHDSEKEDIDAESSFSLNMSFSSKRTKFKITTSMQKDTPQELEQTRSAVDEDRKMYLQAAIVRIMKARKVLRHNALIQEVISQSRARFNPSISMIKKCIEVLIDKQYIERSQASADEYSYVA

Assay [2] has as its target T2, HA/FLAG-PRAMEL7WT, one transgene copy in the Rosa26 locus of mouse ESCs (ESC+H/F-Pramel7WT) (mouse) (UniProt Q810Y8).
T2 sequence: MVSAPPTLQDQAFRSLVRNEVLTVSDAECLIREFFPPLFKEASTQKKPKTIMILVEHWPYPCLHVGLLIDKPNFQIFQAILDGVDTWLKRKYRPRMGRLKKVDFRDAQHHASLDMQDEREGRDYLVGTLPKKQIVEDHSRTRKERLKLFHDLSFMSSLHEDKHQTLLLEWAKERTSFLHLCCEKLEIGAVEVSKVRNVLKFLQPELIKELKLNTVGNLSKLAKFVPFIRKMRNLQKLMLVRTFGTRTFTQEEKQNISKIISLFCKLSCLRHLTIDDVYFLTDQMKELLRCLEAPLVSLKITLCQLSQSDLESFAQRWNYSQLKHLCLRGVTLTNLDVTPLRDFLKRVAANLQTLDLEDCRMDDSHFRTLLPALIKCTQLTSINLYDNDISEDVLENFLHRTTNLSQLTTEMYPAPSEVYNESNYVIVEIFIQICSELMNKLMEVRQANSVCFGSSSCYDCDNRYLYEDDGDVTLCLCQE
Kind of assay: co-IP.

No constants are given. Whether binding was seen depends on the method and setting. In cells and extracts the contact can be indirect. Some results given as binding are weak or reduced against the parent protein; the word gives no strength. Where a sequence is shown, tags or fusion partners need not be part of it.

Regarding “Cullin2 (CUL2), endogenous in mouse ESCs (from UniProt Q9D4H8 1-745)”, the figures for the binding entry in assay [1] and in assay [2] were “no binding” and “binds”, respectively.

The record behind these values is doi:10.1101/2022.10.10.511527.
